Where a name gives a salt, the structure may show the parent alone. Some results were stated once for a whole list of compounds, not compound by compound.
Target: T1, neuronal nitric oxide synthase (Rattus norvegicus, UniProt P29476)
T1 construct: Cerebellar or hippocampal supernatant is prepared by homogenisation; from tissue; host or cells: cerebellum or hippocampus of male Sprague-Dawley rat, 20,000 g supernatant
Type: biochemical
Conditions: enzyme from rat hippocampus or cerebellum; 18 μM 1H-L-arginine, 96 nM 3H-L-arginine; 22° C., pH 7.4; read-out: IC50 (concentration of drug substance which gives 50% enzyme inhibition)

Structure (SMILES) | IC50 [µM]
COC(=O)CC1NCCc2ccc(NC(=N)c3cccs3)cc21 (centres unmarked) [Example 7, N-(1-Methoxycarbonylmethyl-1,2,3,4-tetrahydroisoquinolin-7-yl)-2-thiophenecarboximidamide] | < 10
N=C(Nc1ccc2c(c1)C(CC(=O)O)NCC2)c1cccs1 (centres unmarked) [Example 8, N-(1,2,3,4-Tetrahydroisoquinoline-1-acetic acid-7-yl)-2-thiophenecarboximidamide lithium salt] | < 10
N=C(Nc1ccc2c(c1)CNCC(O)C2)c1cccs1 (centres unmarked) [Example 5, N-(4-Hydroxy-2,3,4,5-tetrahydro-1H-2-benzazepin-8-yl)-2-thiophenecarboximidamide bisfumarate] | < 10
N=C(Nc1ccc2c(c1)C(CCO)NCC2)c1cccs1 (centres unmarked) [Example 6, N-(1-(2-Hydroxyethyl)-1,2,3,4-tetrahydroisoquinolin-7-yl)-2-thiophenecarboximidamide dihydrochloride] | < 10
CN1C[C@@H]2CCCN2Cc2cc(NC(=N)c3cccs3)ccc21 [Example 11, (-)-N-(10-Methyl-2,3,5,10,11,11a-hexahydro-1H-pyrrolo[2,1-c][1,4]benzodiazapin-7-yl)-2-thiophenecarboximidamide dihydrochloride] | < 10
N=C(Nc1ccc2c(c1)C1CCCN1CC2)c1cccs1 (centres unmarked) [Example 4, N-(1,2,3,5,6,10b-Hexahydropyrrolo[2,1-a]isoquinolin-9-yl)-2-thiophenecarboximidamide] | < 10
N=C(Nc1ccc2c(c1)C1CCCCN1CC2)c1cccs1 (centres unmarked) [Example 3, N-(1,3,4,6,7,11b-Hexahydro-2H-benzo[a]quinolizin-10-yl)-2-thiophenecarboximidamide dihydrochloride] | < 10
N=C(Nc1ccc2c(c1)C(CC(N)=O)NCC2)c1cccs1 (centres unmarked) [Example 9, N-(1-Aminocarbonylmethyl-1,2,3,4-tetrahydroisoquinolin-7-yl)-2-thiophenecarboximidamide dihydrochloride] | < 10
